Test results: PubChem BioAssay (EPA / NIEHS)
Inconclusive results, whose numbers are uncertain, are shown with a selection of clear calls. Where the call is inconclusive, the potency comes from a doubtful curve fit. Calls of active or inactive are those of the source. How the source made its calls: active means hit-call score of the fitted dose curve at least 0.9, where 1 is the maximum; inconclusive means response in the unintended direction; inactive means score below 0.9.

Amino acid sequences for entries named in this document (tags omitted). A change or cut given only in a name is not applied to a line headed by its entry.
UniProt Q9UNQ0: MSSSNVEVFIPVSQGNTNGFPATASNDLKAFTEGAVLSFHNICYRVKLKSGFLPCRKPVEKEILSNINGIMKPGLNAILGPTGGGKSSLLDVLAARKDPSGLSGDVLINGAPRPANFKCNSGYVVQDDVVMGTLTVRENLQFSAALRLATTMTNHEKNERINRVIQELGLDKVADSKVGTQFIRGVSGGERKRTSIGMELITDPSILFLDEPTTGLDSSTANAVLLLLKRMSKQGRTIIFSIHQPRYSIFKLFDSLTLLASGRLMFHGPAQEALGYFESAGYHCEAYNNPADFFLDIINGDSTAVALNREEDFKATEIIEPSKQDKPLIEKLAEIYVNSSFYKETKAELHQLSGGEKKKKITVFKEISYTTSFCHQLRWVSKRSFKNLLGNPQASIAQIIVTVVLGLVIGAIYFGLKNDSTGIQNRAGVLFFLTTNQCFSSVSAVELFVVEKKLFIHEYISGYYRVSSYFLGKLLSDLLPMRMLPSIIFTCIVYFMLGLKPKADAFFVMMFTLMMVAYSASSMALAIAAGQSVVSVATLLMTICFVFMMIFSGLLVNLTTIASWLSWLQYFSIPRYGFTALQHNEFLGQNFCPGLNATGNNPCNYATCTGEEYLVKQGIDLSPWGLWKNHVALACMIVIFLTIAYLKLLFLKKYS
UniProt P30542, whole entry, looked up: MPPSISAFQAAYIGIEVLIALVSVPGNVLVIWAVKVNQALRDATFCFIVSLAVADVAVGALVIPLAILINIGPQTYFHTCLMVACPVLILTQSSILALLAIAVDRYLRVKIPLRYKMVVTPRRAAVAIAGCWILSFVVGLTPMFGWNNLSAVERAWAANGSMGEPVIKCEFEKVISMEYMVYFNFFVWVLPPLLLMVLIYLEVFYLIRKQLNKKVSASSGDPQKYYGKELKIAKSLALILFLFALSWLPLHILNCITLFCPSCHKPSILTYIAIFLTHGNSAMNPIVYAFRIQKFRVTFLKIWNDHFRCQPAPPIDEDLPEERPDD
UniProt P31645, whole entry, looked up: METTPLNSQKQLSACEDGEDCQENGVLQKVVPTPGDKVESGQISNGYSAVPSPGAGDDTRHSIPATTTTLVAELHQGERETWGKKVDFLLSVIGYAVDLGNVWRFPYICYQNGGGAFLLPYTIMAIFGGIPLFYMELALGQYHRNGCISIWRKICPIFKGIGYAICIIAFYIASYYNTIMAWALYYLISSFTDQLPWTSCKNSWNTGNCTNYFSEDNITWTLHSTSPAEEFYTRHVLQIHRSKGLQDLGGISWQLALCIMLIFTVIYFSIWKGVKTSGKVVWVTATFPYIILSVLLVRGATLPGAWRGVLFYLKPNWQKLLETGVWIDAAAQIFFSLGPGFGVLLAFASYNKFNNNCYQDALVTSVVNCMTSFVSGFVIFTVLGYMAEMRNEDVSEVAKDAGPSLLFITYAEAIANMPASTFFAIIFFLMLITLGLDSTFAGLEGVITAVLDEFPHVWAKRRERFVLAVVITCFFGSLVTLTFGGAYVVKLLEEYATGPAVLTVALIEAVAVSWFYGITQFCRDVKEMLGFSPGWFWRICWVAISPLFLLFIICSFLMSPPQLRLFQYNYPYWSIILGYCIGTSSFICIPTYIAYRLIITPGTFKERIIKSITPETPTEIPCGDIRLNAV
UniProt P11511: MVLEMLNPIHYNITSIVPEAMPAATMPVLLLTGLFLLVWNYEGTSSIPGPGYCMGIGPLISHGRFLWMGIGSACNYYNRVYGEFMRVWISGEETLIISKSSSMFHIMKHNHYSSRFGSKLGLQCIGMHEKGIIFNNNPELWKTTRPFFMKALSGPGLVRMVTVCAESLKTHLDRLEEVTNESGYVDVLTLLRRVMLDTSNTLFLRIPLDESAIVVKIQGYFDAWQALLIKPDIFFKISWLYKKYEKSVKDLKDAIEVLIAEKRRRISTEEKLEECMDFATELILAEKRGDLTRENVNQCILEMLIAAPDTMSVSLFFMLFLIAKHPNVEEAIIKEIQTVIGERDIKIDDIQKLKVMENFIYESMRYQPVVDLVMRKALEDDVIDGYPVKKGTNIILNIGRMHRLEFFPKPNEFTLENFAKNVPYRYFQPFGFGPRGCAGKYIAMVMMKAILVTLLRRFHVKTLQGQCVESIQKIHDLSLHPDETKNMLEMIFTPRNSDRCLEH
UniProt P49841: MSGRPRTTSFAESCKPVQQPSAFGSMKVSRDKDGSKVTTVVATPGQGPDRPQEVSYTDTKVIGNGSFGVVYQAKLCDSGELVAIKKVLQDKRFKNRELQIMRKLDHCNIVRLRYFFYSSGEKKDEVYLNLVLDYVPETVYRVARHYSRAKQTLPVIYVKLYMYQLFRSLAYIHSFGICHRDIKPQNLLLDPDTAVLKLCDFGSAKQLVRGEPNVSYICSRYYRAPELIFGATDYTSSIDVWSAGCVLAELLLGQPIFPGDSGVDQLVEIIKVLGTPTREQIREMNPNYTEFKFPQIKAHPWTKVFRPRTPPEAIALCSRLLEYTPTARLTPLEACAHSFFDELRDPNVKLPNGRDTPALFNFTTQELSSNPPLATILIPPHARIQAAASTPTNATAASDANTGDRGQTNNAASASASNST
UniProt P07948: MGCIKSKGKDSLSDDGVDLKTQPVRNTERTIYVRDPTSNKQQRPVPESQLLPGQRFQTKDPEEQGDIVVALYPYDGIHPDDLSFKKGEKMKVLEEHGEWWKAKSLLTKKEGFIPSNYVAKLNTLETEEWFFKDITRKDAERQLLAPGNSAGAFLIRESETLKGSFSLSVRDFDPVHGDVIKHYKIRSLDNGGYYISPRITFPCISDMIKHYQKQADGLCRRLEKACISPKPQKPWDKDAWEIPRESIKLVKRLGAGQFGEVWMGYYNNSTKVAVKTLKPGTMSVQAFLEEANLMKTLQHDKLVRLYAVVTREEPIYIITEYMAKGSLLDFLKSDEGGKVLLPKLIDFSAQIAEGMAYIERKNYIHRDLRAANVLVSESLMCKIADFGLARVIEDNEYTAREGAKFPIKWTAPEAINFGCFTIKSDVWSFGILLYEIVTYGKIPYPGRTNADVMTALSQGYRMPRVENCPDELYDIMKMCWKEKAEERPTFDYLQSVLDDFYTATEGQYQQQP
UniProt Q96RI1: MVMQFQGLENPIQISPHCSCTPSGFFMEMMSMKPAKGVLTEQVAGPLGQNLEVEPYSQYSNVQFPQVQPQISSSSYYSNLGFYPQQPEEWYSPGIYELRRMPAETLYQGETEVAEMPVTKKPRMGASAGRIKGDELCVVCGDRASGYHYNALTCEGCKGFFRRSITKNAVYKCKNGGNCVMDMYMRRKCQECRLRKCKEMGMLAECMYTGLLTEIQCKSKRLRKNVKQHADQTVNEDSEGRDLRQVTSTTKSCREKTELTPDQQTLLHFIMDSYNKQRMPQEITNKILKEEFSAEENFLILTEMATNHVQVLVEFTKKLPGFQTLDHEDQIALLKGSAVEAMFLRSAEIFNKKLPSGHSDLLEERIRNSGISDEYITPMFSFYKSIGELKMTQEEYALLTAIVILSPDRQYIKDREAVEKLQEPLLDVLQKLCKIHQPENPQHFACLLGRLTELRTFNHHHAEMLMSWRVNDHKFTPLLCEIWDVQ
UniProt P31749: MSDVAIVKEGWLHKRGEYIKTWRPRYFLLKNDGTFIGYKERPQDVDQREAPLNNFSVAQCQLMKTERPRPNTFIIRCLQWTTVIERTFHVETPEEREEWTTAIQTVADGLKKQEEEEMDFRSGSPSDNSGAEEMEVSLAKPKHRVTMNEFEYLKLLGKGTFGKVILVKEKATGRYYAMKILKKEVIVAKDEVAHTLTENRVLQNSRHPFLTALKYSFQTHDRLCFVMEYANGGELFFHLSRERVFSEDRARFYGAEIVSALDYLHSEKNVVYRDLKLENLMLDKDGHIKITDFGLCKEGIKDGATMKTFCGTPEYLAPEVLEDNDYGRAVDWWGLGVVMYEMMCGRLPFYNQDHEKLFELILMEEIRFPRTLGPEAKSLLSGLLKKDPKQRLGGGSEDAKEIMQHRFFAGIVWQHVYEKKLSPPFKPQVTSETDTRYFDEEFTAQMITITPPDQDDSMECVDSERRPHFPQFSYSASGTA
UniProt P07333, whole entry, looked up: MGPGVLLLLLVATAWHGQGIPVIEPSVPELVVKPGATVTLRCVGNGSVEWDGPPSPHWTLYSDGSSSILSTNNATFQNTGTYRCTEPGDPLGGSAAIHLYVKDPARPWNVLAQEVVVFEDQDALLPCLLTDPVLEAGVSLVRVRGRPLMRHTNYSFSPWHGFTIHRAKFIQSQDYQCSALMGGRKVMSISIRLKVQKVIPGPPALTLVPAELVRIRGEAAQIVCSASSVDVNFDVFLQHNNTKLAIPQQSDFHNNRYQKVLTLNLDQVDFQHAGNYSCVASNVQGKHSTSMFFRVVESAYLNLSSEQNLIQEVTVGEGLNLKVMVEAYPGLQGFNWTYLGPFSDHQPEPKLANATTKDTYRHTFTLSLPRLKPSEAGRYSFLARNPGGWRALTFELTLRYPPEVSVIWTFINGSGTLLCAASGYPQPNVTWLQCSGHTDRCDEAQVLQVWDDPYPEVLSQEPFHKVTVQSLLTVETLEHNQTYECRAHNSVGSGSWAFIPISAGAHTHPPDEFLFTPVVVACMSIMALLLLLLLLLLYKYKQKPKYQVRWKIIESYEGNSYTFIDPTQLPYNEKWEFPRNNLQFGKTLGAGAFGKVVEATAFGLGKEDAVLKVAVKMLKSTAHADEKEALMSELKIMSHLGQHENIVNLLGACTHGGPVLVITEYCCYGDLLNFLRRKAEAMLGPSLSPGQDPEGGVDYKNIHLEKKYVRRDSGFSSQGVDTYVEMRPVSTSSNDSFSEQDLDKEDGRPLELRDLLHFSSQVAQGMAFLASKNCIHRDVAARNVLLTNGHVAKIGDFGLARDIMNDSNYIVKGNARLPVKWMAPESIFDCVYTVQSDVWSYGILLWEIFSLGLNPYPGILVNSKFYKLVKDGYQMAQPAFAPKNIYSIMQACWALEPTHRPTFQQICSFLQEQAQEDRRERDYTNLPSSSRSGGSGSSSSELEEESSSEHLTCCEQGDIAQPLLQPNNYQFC
UniProt Q9NTG7: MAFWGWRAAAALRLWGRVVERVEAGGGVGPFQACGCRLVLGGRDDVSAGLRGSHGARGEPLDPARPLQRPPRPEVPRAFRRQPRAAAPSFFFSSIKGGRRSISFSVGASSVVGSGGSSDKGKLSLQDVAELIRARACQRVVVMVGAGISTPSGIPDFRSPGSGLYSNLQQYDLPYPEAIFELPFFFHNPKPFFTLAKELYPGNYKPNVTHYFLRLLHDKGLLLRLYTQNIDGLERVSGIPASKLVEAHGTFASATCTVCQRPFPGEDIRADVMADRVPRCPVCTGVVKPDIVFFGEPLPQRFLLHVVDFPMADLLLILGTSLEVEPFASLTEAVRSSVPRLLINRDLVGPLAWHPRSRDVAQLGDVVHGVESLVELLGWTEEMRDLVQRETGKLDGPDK
UniProt P08173, whole entry, looked up: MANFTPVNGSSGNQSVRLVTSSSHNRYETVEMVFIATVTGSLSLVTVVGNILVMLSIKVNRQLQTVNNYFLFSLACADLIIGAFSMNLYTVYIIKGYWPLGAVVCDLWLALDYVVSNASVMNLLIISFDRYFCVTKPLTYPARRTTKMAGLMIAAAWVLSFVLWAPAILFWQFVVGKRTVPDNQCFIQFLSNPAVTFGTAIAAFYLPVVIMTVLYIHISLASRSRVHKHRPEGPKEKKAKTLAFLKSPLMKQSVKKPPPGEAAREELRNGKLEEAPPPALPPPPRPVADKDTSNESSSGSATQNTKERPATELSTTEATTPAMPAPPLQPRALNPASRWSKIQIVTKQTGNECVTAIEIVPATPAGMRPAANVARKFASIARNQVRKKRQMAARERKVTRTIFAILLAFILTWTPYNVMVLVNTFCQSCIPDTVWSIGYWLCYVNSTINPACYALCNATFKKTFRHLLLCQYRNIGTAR

What was measured:
[1] = read-out: Broad substrate specificity ATP-binding cassette transporter ABCG2 (Homo sapiens) (UniProt Q9UNQ0); assay: CLD_ABCG2_24hr: CellzDirect (CLD) Gene Expression Assay for ABC Transporter (ABCG2) at 24 hours (AID 2283685);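 on AC50: AC50 is for induction meaning signal gain over DMSO vehicle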
Procedure, shortened: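 ABCG2 mRNA induction, read as gain of chemiluminescent signal over 0.2% DMSO, was measured by quantitative nuclease protection at 24 h. Cultured human liver hepatocytes were given fresh dosing solutions of test chemicals at several concentrations each day.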

[2] = read-out: organic anion transporter (SLCO1B1), SLCO1B1 (gene 10599); assay: CLD_SLCO1B1_24hr: CellzDirect (CLD) Gene Expression Assay for organic anion transporter (SLCO1B1) at 24 hours (AID 2283690)
Procedure, shortened: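 SLCO1B1 mRNA induction read at 24 h by quantitative nuclease protection assay (chemiluminescence), analyzed against DMSO baseline. Human hepatocyte cultures from separate donors received fresh dosing solutions daily; vehicle 0.2% DMSO; cytotoxicity flagged by phase-contrast morphology.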

[3] = read-out: alkyl and aryl transferase (GSTA2), GSTA2 (gene 2939); assay: CLD_GSTA2_48hr: CellzDirect (CLD) Gene Expression Assay for alkyl and aryl transferase (GSTA2) at 48 hours (AID 2283708);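 further: active means mRNA induction above DMSO vehicle baseline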
Procedure, shortened: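 GSTA2 mRNA quantified by qNPA chemiluminescence in human primary hepatocyte lysates after 48 h of daily fresh chemical dosing. Increases fitted against 0.2% DMSO vehicle baseline; cytotoxicity from morphology annotated yes/no.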

[4] = target: human Adenosine A1 Receptor (AdoRA1), ADORA1 (gene 134) (UniProt P30542); assay: NVS_GPCR_hAdoRA1: NovaScreen (NVS) G Protein-Coupled Receptor Assay for human Adenosine A1 Receptor (AdoRA1) (AID 2283254)
Procedure, shortened: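 Radioligand binding was run on human cortical membranes, cell-free, with filter-based scintillation counting 1 h after dosing. The primary screen was duplicate at 25 uM, followed by concentration series. Signal loss versus DMSO was fitted positive-direction.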

[5] = target: human Serotonin Transporter (SERT), SLC6A4 (gene 6532) (UniProt P31645); assay: NVS_TR_hSERT: NovaScreen (NVS) Transporter Assay for human Serotonin Transporter (SERT) (AID 2283372)
Procedure, shortened: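 Human platelet membrane preparation; displacement of radioligand from serotonin transporter measured after 1 h by filtration and scintillation counting. Single 25 uM duplicate screen, then concentration series for actives, with DMSO as negative baseline.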

[6] = Tanguay_ZF_120hpf_CIRC_legacy: (Legacy) Oregon State University Tanguay Lab 120 Hour Post-fertilization zebrafish Assay for Circulatory Malformation (AID 2283651)
Procedure, shortened: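 Static exposure, 6–120 hpf, 28C, sealed and dark; one dechorionated 5D embryo/well; DMSO 0.64% v/v final. Binary circulation endpoint by brightfield; dead embryos not scored.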

[7] = target: human CYP19A1, CYP19A1 (gene 1588) (UniProt P11511); assay: NVS_ADME_hCYP19A1: NovaScreen (NVS) CYP450-related Enzyme Activity (ADME) Assay for human CYP19A1 (AID 2283098);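 further: potency for inhibitors seen as loss of fluorescent enzyme signal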
Procedure, shortened: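 Fluorescence intensity read-out; activity taken as signal loss relative to acetonitrile vehicle. Extracted enzyme, specific substrate, no cells, 0.5 h exposure. Duplicate single-point screen at 10 uM, then concentration–response follow-up for actives.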

[8] = target: Glycogen synthase kinase-3 beta (Homo sapiens) (UniProt P49841); assay: NVS_ENZ_hGSK3b: NovaScreen (NVS) Enzymatic Assay for human Glycogen Synthase Kinase-3 beta (GSK3b) (AID 2283165)
Procedure, shortened: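 Recombinant enzyme with specific fluorescent substrate, 1 h, product separated by electrophoretic mobility shift. Primary duplicate screen at 25 uM; actives (e.g. 30% inhibition) followed in singleton concentration-response to 50 uM. Signal loss fitted versus DMSO.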

[9] = target: human LYN Proto-Oncogene, Src family Tyrosine Kinase (LynA), LYN (gene 4067) (UniProt P07948); assay: NVS_ENZ_hLynA: NovaScreen (NVS) Enzymatic Assay for human LYN Proto-Oncogene, Src family Tyrosine Kinase (LynA) (AID 2283173)
Procedure, shortened: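 Recombinant kinase with fluorescent substrate; product separated from substrate by electrophoretic mobility shift and read 1 h after dosing. Duplicate screen at 25 uM, then concentration-response up to 50 uM; activity scored as signal loss against DMSO.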

[10] = target: Tyrosine-protein phosphatase non-receptor type 11 (Homo sapiens) (UniProt Q06124); assay: NVS_ENZ_hPTPN11: NovaScreen (NVS) Enzymatic Assay for human Protein Tyrosine Phosphatase Non-receptor Type 11 (PTPN11) (AID 2283202)
Procedure, shortened: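 Compounds first tested in duplicate at 25 uM; those reaching ~30% inhibition rerun in singleton concentration-response, top 50 uM. Phosphatase activity measured after 0.5 h by fluorescence with mobility-shift separation, relative to DMSO.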

[11] = target: Bile acid receptor (Homo sapiens) (UniProt Q96RI1); assay: NVS_NR_hFXR_Antagonist: NovaScreen (NVS) Nuclear Receptor Binding Assay for human Farnesoid X Receptor Antagonism (FXR) (AID 2283350)
Procedure, shortened: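 Antagonist-format time-resolved FRET binding assay with extracted human receptor protein, read 1 hour after compound addition. Compounds first screened at 25 uM in duplicate, then actives tested in concentration series, with loss of signal relative to DMSO.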

[12] = Tanguay_ZF_120hpf_TRUN_legacy: (Legacy) Oregon State University Tanguay Lab 120 Hour Post-fertilization zebrafish Assay for Truncated Body (AID 2283655)
Procedure, shortened: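 Single dechorionated zebrafish embryos received test chemical from 6 hpf in 0.64% DMSO, kept at 28C. At 120 hpf, brightfield inspection noted any truncated body.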

[13] = read-out: alkyl and aryl transferase (GSTA2), GSTA2 (gene 2939); assay: CLD_GSTA2_6hr: CellzDirect (CLD) Gene Expression Assay for alkyl and aryl transferase (GSTA2) at 6 hours (AID 2283666)
Procedure, shortened: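 GSTA2 transcript induction at 6 h, quantified by nuclease protection (qNPA) with chemiluminescent detection, in human liver primary hepatocytes exposed to several compound concentrations with 0.2% DMSO as baseline; phase-contrast morphology annotated apparent cytotoxicity.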

[14] = CLD_ACTIN_48hr: CellzDirect (CLD) Gene Expression Assay for Baseline Control (Actin) at 48 hours (AID 2283702)
Procedure, shortened: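 Background-control actin mRNA read by qNPA chemiluminescence at 48 h. Human hepatocyte cultures from two donors received fresh multi-concentration chemical doses daily for two days; 0.2% DMSO served as vehicle baseline.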

[15] = STM_H9_OrnCyssISnorm_ratio: Stemina devTOX quickPredict H9 human embryonic stem cell (hESC)-based Assay for Ornithine (ORN):Cystine (CYSS) Ratio (AID 2283714)
Procedure, shortened: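 UPLC-HRMS of spent media: ORN/CYSS ratio of internal-standard-normalized percentages, DMSO (0.1%) baseline. Pluripotent H9 hESCs, 72h exposure, daily re-dosing with fresh media; last 24h media collected.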

[16] = target: human AKT serine/threonine Kinase 1 (AKT1), AKT1 (gene 207) (UniProt P31749); assay: NVS_ENZ_hAKT1: NovaScreen (NVS) Enzymatic Assay for human AKT serine/threonine Kinase 1 (AKT1) (AID 2283138)
Procedure, shortened: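 Fluorescence and mobility-shift readout of kinase activity, taken 1 h post-dosing in a cell-free format with recombinant protein. Primary screen at 25 uM in duplicate; hits (e.g. 30% inhibition) retested in concentration series topping at 50 uM.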

[17] = target: human Colony Stimulating Factor 1 Receptor (CSF1R), CSF1R (gene 1436) (UniProt P07333); assay: NVS_ENZ_hCSF1R: NovaScreen (NVS) Enzymatic Assay for human Colony Stimulating Factor 1 Receptor (CSF1R) (AID 2283150)
Procedure, shortened: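 Compounds screened in duplicate at 25 uM, then concentration-response (top 50 uM) for those passing threshold such as 30% inhibition; recombinant CSF1R activity measured 1 h post-dosing via fluorescent substrate/product mobility-shift separation, loss of signal versus DMSO.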

[18] = target: human Sirtuin 3 (SIRT3), SIRT3 (gene 23410) (UniProt Q9NTG7); assay: NVS_ENZ_hSIRT3: NovaScreen (NVS) Enzymatic Assay for human Sirtuin 3 (SIRT3) (AID 2283222)
Procedure, shortened: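 Cell-free enzyme assay with recombinant protein and fluorescent substrate, product separated by electrophoretic mobility shift; read 1 hour after dosing. Screened in duplicate at 25 uM, then singleton concentration-response up to 50 uM; loss of signal versus DMSO.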

[19] = target: human Muscarinic, M4 Receptor, CHRM4 (gene 1132) (UniProt P08173); assay: NVS_GPCR_hM4: NovaScreen (NVS) G Protein-Coupled Receptor Assay for human Muscarinic, M4 Receptor (AID 2283274)
Procedure, shortened: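 Filter-based scintillation counting of radioligand bound to CHO-expressed human M4 preparations after 1 h; loss of signal fitted versus DMSO. Initial duplicate testing at 25 uM, concentration-response follow-up for actives.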

[20] = tested on: rat Adrenergic, Alpha 1B Receptor (Adra1B), gene 24173; assay: NVS_GPCR_rAdra1B: NovaScreen (NVS) G Protein-Coupled Receptor Assay for rat Adrenergic, Alpha 1B Receptor (Adra1B) (AID 2283297)
Procedure, shortened: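 Filter-binding radioligand competition on membranes from rat liver, read after 1 h by scintillation counting. Single-concentration duplicate screen at 25 uM, followed by concentration-response on actives, normalised to DMSO.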

CCC(O)=C1C(=O)CC(C(=O)O)CC1=O (stereo not given)
outcome [1]: inactive
outcome [2]: inactive
AC50 [3]: inconclusive: 20 µM

O=C=Nc1cccc2c(N=C=O)cccc12
AC50 [4]: inconclusive: 0.0577 µM

CCCCCCCCOC(=O)CCCCCCCCC(=O)OCCCCCCCC
outcome [5]: inactive
AC50 [6]: inconclusive: 6.43 µM

CCCCC/C=C\C=C\C(=O)OCC
AC50 [7]: active: 15.6 µM

CCCN(CCC)c1c([N+](=O)[O-])cc(C(F)(F)F)c(N)c1[N+](=O)[O-]
AC50 [8]: inconclusive: 2.72 µM
AC50 [9]: inconclusive: 19.5 µM
AC50 [10]: inconclusive: 25 µM
AC50 [11]: inconclusive: 0.458 µM
AC50 [12]: inconclusive: 132 µM
outcome [13]: inactive
AC50 [2]: inconclusive: 20 µM
AC50 [14]: inconclusive: 20 µM
AC50 [15]: inconclusive: 5 µM

CCCCCCCC(=O)O
AC50 [16]: inconclusive: 0.407 µM
AC50 [17]: inconclusive: 25 µM
outcome [9]: inactive
AC50 [18]: inconclusive: 4.96 µM
AC50 [19]: active: 6.66 µM
outcome [20]: inactive

CC1(C)C(=O)N(CO)C(=O)N1CO
AC50 [4]: inconclusive: 0.0729 µM

CCCC(CCC)C(=O)O
AC50 [17]: inconclusive: 25 µM

COc1cc2c(c(OC)c1OC)-c1ccc(OC)c(=O)cc1[C@@H](NC(C)=O)CC2
AC50 [7]: inconclusive: 1.98 µM
AC50 [12]: inconclusive: 187 µM

COC(=O)CCCCC(=O)OC
AC50 [20]: inconclusive: 25 µM

NCCO
outcome [16]: inactive
AC50 [19]: inconclusive: 0.13 µM
AC50 [5]: inconclusive: 25 µM

CN1C(=O)N(c2ccccc2Br)Cc2cnc(Nc3ccc4c(c3)OCC(CO)O4)nc21 (stereo not given)
AC50 [8]: active: 7.73 µM
AC50 [11]: active: 0.0374 µM
outcome [6]: inactive

COC(=O)c1cccc(C)c1S(=O)(=O)NC(=O)Nc1nc(OCC(F)(F)F)nc(N(C)C)n1
AC50 [13]: inconclusive: 20 µM
AC50 [1]: inconclusive: 20 µM
AC50 [14]: inconclusive: 1.21 µM
AC50 [3]: inconclusive: 2.55 µM

CCCCCCCC=O
AC50 [18]: inconclusive: 25 µM

CC[C@H](C)C(=O)O[C@H]1C[C@H](O)C=C2C=C[C@H](C)[C@H](CC[C@@H](O)C[C@@H](O)CC(=O)O)[C@H]21
AC50 [10]: inconclusive: 25 µM
AC50 [15]: inconclusive: 1.17 µM
